Laboratory results as given in article PMC3572085.
These are yes or no findings as the source states them, for the method shown. In cells and extracts the contact can be indirect. Where a sequence is shown, tags or fusion partners need not be part of it.

Amino acid sequences for entries named in this document (tags omitted).
UniProt O54943: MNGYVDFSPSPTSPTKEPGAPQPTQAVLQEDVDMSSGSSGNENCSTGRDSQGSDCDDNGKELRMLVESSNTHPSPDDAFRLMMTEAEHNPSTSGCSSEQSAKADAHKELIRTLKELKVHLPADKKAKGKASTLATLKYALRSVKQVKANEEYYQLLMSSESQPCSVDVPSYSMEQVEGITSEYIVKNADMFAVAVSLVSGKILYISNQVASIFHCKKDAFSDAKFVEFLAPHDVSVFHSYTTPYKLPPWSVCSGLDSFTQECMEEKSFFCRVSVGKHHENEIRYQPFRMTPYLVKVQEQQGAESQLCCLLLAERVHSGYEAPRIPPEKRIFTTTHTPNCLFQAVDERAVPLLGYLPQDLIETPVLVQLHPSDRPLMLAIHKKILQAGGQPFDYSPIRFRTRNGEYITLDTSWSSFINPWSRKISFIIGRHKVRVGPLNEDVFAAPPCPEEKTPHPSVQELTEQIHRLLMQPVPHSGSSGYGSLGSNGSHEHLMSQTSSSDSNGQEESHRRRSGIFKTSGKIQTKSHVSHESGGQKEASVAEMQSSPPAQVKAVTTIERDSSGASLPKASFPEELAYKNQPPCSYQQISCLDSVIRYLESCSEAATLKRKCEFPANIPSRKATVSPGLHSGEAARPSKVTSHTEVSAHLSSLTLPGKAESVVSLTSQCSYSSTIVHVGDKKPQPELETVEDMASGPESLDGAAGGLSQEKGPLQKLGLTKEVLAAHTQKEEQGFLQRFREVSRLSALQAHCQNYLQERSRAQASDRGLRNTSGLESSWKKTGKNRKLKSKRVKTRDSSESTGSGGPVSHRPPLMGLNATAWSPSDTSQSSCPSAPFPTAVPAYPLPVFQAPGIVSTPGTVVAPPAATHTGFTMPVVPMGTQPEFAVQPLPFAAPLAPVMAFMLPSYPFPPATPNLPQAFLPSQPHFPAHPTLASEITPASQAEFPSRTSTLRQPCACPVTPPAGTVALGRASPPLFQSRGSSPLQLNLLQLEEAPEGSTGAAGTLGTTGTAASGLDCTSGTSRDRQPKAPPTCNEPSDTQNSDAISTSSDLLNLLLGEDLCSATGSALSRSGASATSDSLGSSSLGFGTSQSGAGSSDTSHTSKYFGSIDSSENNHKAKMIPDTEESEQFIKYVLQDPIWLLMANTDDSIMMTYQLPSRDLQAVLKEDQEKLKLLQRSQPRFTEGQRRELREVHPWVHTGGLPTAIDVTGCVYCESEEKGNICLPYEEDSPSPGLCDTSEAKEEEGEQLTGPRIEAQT

Key:
[1] = molecular target: T1, l-TIM-V5, C-terminally V5 tagged full length mouse TIMELESS, TIM(1–1198)-V5 (mouse) (UniProt Q9R1X4); experiment: co-IP; COS7 co-expressing l-TIM-V5 and PER2-EGFP (with or without LMB) or PER2NESmut-GFP, or CRY2-V5 and PER2-GFP (positive control); IP anti-V5
T1 sequence: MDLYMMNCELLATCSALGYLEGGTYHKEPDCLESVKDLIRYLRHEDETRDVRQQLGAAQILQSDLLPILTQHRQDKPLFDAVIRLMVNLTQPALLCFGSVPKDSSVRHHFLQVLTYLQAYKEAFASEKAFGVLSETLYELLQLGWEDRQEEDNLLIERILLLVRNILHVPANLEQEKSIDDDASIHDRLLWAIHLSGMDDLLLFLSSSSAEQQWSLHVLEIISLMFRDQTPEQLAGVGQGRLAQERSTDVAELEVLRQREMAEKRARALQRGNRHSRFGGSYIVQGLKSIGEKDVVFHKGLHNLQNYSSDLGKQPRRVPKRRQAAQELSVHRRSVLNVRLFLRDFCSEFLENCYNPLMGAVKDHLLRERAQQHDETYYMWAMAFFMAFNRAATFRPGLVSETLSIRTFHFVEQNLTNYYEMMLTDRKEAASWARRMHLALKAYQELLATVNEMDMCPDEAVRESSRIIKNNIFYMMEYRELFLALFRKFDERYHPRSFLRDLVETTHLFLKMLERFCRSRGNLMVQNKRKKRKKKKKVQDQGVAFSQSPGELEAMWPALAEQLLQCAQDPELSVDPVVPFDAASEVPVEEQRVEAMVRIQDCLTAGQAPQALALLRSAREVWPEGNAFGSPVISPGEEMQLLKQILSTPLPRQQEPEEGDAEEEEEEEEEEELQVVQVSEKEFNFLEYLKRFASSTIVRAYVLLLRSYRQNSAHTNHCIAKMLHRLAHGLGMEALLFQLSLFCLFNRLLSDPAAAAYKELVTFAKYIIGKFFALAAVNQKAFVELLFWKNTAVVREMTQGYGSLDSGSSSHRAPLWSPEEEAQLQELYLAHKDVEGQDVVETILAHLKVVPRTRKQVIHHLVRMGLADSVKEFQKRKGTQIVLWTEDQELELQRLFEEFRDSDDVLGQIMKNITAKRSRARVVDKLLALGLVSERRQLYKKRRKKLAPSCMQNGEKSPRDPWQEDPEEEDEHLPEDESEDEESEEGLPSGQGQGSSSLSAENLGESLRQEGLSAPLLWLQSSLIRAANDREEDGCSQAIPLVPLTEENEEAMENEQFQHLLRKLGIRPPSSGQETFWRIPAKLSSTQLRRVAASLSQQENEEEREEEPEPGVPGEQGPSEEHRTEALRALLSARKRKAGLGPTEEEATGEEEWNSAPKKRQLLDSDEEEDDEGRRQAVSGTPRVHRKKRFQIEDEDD

[2] = molecular target: T1, l-TIM-V5, C-terminally V5 tagged full length mouse TIMELESS, TIM(1–1198)-V5 (mouse); experiment: co-IP; COS7 co-expressing all three of HA-CRY1 (WT or mutNLSc), l-TIM-V5 and PER2-GFP; IP of each with anti-HA, anti-V5 or anti-GFP, blots with the corresponding antibodies

PER2-GFP (from UniProt O54943 1-1257)
binding [1]: no binding | binding [2]: no binding
